Source: paper PMC8273887 (Journal of Medicinal Chemistry, 2021)
For some assays here: Strings that start with PEPTIDE1 are HELM notation: dots part the residues, brackets hold end groups and non-standard residues.

Assays:
[1] = Fmoc solid-phase peptide synthesis; Fmoc-Phe-Wang (TFF3_36-59); 2-chlorotrityl hydrazide resin (TFF3_1-35-NHNH2); Rink amide Protide resin (TFF3_10-50, TFF3); DIC/Oxyma Pure; conditions: whole synthesis, scale of the general procedure 0.1 mmol
[2] = general procedure: Fmoc solid-phase peptide synthesis; Fmoc-Phe-Wang (TFF3_36-59); 2-chlorotrityl hydrazide resin (TFF3_1-35-NHNH2); Rink amide Protide resin (TFF3_10-50, TFF3); DIC/Oxyma Pure; conditions: conjugation step

## TFF3_1-59 (EEYVGLSANQCAVPAKDRVDCGYPHVTPKECNNRGCCFDSRIPGVPWCFKPLQEAECTF; three intrachain disulfide bonds (Cys^I-V, Cys^II-IV, Cys^III-VI); Cys^57 (Cys^VII) free)
[1]
  outcome: Single-chain assembly of full-length TFF3_1-59 was not successful due to difficult sequence sections

## PEPTIDE1{E.E.Y.V.G.L.S.A.N.Q.C.A.V.P.A.K.D.R.V.D.C.G.Y.P.H.V.T.P.K.E.C.N.N.R.G.C.C.F.D.S.R.I.P.G.V.P.W.C.F.K.P.L.Q.E.A.E.C.T.F}|PEPTIDE2{E.E.Y.V.G.L.S.A.N.Q.C.A.V.P.A.K.D.R.V.D.C.G.Y.P.H.V.T.P.K.E.C.N.N.R.G.C.C.F.D.S.R.I.P.G.V.P.W.C.F.K.P.L.Q.E.A.E.C.T.F}$PEPTIDE1,PEPTIDE1,11:R3-37:R3|PEPTIDE1,PEPTIDE1,21:R3-36:R3|PEPTIDE1,PEPTIDE1,31:R3-48:R3|PEPTIDE2,PEPTIDE2,11:R3-37:R3|PEPTIDE2,PEPTIDE2,21:R3-36:R3|PEPTIDE2,PEPTIDE2,31:R3-48:R3|PEPTIDE1,PEPTIDE2,57:R3-57:R3$$$V2.0
[2]
  conjugation yield: ∼60%
